Reference: the supplement of paper PMC3334620
The full ranking holds about 33,000 sequences; the median of “E-score (-0.5 to 0.5)” is about -0.015, and the highest 2% start at about 0.3. This is one part of the list.

target: T1, Abf1 (UniProt P14164); assay: PBM E-score (8-mer binding enrichment) (E-score (-0.5 to 0.5)); higher = stronger / more preferred TF binding; conditions: protein concentration: 200 nM; construct: GST-full length
T1 sequence: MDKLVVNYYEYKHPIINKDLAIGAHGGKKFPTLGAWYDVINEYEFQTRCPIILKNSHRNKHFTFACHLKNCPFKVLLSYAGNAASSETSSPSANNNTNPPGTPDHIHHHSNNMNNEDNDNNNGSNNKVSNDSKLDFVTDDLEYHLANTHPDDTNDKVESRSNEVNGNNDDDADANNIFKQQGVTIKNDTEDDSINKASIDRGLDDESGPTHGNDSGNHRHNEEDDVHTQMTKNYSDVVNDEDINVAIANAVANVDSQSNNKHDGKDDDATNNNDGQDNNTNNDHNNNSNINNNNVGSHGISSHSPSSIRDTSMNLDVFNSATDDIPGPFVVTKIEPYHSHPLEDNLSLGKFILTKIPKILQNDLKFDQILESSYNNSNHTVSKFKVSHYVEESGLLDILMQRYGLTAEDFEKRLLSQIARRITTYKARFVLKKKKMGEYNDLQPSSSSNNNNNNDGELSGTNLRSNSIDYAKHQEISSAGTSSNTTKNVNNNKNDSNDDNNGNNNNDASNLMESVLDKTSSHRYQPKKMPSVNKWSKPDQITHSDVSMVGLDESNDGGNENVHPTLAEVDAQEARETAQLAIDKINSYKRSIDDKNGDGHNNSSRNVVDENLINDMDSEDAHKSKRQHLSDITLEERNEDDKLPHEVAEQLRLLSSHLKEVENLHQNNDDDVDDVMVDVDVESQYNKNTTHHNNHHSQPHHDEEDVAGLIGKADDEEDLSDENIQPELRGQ
Protocol: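 Universal 'all 10-mer' protein binding microarrays (Agilent AMADID 015681) probed with GST-tagged S. cerevisiae TFs (full-length or DBD) made by in vitro transcription/translation (PURExpress), about 100-200 nM. Bound TF was detected with fluorescent anti-GST. Each ungapped 8-mer (which stands for itself and its reverse complement) is scored by the PBM enrichment score (E-score), a modified Wilcoxon-Mann-Whitney statistic from -0.5 to +0.5, computed with the Universal PBM Analysis Suite. Scale: above 0.35 generally sequence-specific binding.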

Q: How did the “PBM E-score” value turn out when GGCGGCTA was run?
A: -0.0742

Q: Which “PBM E-score” value does the source give for AGATCCTA here?
A: 0.0773

Q: For AGACGCAC, which “PBM E-score” value is on record?
A: -0.0441

Q: With GCATCAAA as the sequence, how does the “PBM E-score” value read?
A: 0.0877

Q: For AAGACTAC, which “PBM E-score” value is on record?
A: -0.0652

Q: Which “PBM E-score” value does the source give for CCACGTGC here?
A: 0.0459

Q: For GACTGGCC, which “PBM E-score” value is on record?
A: -0.182

Q: ATCCAAGC was tested. Which “PBM E-score” value did it give?
A: -0.179

Q: For CATCTACA, which “PBM E-score” value is on record?
A: 0.0159

Q: Which “PBM E-score” value does the source give for AAGCAAGT here?
A: -0.152

Q: How did the “PBM E-score” value turn out when CCCACTAC was run?
A: -0.109

Q: How did the “PBM E-score” value turn out when ATAGACTA was run?
A: 0.0168

Q: For CCGAGTCG, which “PBM E-score” value is on record?
A: -0.184

Q: With ACACTCAC as the sequence, how does the “PBM E-score” value read?
A: -0.0259

Q: With ACTCTTAA as the sequence, how does the “PBM E-score” value read?
A: -0.0406

Q: For ACTCATGC, which “PBM E-score” value is on record?
A: -0.0313

Q: For TAACGGCA, which “PBM E-score” value is on record?
A: 0.17

Q: With AACCTGCG as the sequence, how does the “PBM E-score” value read?
A: -0.107

Q: CAGCCAAA was tested. Which “PBM E-score” value did it give?
A: -0.0235

Q: With CGCTTTCC as the sequence, how does the “PBM E-score” value read?
A: -0.0668

Q: How did the “PBM E-score” value turn out when AAGTGGTG was run?
A: -0.135

Q: Which “PBM E-score” value does the source give for GAGTACAC here?
A: -0.0664

Q: CTAGGTTA was tested. Which “PBM E-score” value did it give?
A: 0.163

Q: With GTGGAAAC as the sequence, how does the “PBM E-score” value read?
A: 0.0949

Q: With CATAAACA as the sequence, how does the “PBM E-score” value read?
A: 0.0594

Q: With ACAGGTCT as the sequence, how does the “PBM E-score” value read?
A: 0.091

Q: Which “PBM E-score” value does the source give for AAATTGAG here?
A: -0.124

Q: ATTAGCGG was tested. Which “PBM E-score” value did it give?
A: -0.0661

Q: Which “PBM E-score” value does the source give for CGTTTAGC here?
A: -0.0044

Q: ATAACCGC was tested. Which “PBM E-score” value did it give?
A: -0.00286

Q: How did the “PBM E-score” value turn out when AACCCTTG was run?
A: -0.187

Q: Which “PBM E-score” value does the source give for ATCAGGCG here?
A: 0.0182

Q: Which “PBM E-score” value does the source give for AGCTAATA here?
A: 0.113

Q: With CATCGGAA as the sequence, how does the “PBM E-score” value read?
A: 0.0244

Q: With AATGCACA as the sequence, how does the “PBM E-score” value read?
A: 0.153

Q: How did the “PBM E-score” value turn out when CCTCATCG was run?
A: -0.0266

Q: How did the “PBM E-score” value turn out when CGAATGCC was run?
A: -0.18

Q: How did the “PBM E-score” value turn out when GAGGTAGA was run?
A: -0.12

Q: CTTTAGTC was tested. Which “PBM E-score” value did it give?
A: -0.0462

Q: How did the “PBM E-score” value turn out when ATGCCGCG was run?
A: 0.0192

Q: With GACTGGAC as the sequence, how does the “PBM E-score” value read?
A: -0.111

Q: For CTAGACTA, which “PBM E-score” value is on record?
A: -0.044

Q: Which “PBM E-score” value does the source give for CTAGGGGC here?
A: -0.216

Q: Which “PBM E-score” value does the source give for CTTAAACA here?
A: -0.00287

Q: How did the “PBM E-score” value turn out when GCCAGTAC was run?
A: -0.113

Q: How did the “PBM E-score” value turn out when CGCAACCC was run?
A: -0.103

Q: How did the “PBM E-score” value turn out when CTGTCAGC was run?
A: -0.139

Q: How did the “PBM E-score” value turn out when ATCGAGGG was run?
A: -0.137

Q: For ACTACTGG, which “PBM E-score” value is on record?
A: -0.114

Q: For AAAAGCAT, which “PBM E-score” value is on record?
A: 0.0781

Q: AATTCCGC was tested. Which “PBM E-score” value did it give?
A: 0.109

Q: Which “PBM E-score” value does the source give for GGACCATA here?
A: -0.139

Q: How did the “PBM E-score” value turn out when GATTCAAC was run?
A: 0.0326

Q: How did the “PBM E-score” value turn out when GTGCGGAA was run?
A: 0.0933

Q: With ATGACCAC as the sequence, how does the “PBM E-score” value read?
A: 0.0534

Q: For ACTTCACG, which “PBM E-score” value is on record?
A: 0.125

Q: For ACGATAGC, which “PBM E-score” value is on record?
A: 0.291

Q: For AAACACCG, which “PBM E-score” value is on record?
A: -0.0545

Q: With AGCGACGC as the sequence, how does the “PBM E-score” value read?
A: 0.122

Q: How did the “PBM E-score” value turn out when ACTTTAGA was run?
A: 0.144

Q: How did the “PBM E-score” value turn out when CAGTCTGC was run?
A: -0.163

Q: Which “PBM E-score” value does the source give for AGGGACAC here?
A: 0.0733

Q: For GGGGCTTA, which “PBM E-score” value is on record?
A: -0.303

Q: With CACAGATA as the sequence, how does the “PBM E-score” value read?
A: 0.00079

Q: Which “PBM E-score” value does the source give for ACGCATTC here?
A: -0.027

Q: Which “PBM E-score” value does the source give for ACCTATTG here?
A: -0.0791

Q: How did the “PBM E-score” value turn out when GGAATCCC was run?
A: -0.151

Q: How did the “PBM E-score” value turn out when GGTTATTA was run?
A: 0.126

Q: For ATCACCCA, which “PBM E-score” value is on record?
A: 0.246

Q: With GTACGACA as the sequence, how does the “PBM E-score” value read?
A: 0.36

Q: GGATCACC was tested. Which “PBM E-score” value did it give?
A: 0.247

Q: For CTTAATTC, which “PBM E-score” value is on record?
A: 0.128

Q: Which “PBM E-score” value does the source give for GACAGCGA here?
A: -0.0707

Q: ACGAATAT was tested. Which “PBM E-score” value did it give?
A: 0.209

Q: Which “PBM E-score” value does the source give for CGCTTAGC here?
A: -0.221

Q: Which “PBM E-score” value does the source give for CCGTGGCA here?
A: -0.0649

Q: For AGCACCCG, which “PBM E-score” value is on record?
A: -0.0893

Q: GCGGCTCC was tested. Which “PBM E-score” value did it give?
A: -0.343

Q: GAATCCAC was tested. Which “PBM E-score” value did it give?
A: -0.00956

Q: How did the “PBM E-score” value turn out when CATATCCG was run?
A: 0.0157

Q: Which “PBM E-score” value does the source give for CGTGCAAG here?
A: 0.169

Q: For AGCTCTAT, which “PBM E-score” value is on record?
A: -0.0782

Q: With AGGTAAAC as the sequence, how does the “PBM E-score” value read?
A: -0.191

Q: With ATATAGCG as the sequence, how does the “PBM E-score” value read?
A: -0.0746

Q: How did the “PBM E-score” value turn out when CTCCGTCC was run?
A: -0.0828

Q: For AGCACCAT, which “PBM E-score” value is on record?
A: -0.199

Q: With CAACGTGC as the sequence, how does the “PBM E-score” value read?
A: 0.057

Q: With AACGGCTC as the sequence, how does the “PBM E-score” value read?
A: 0.00606

Q: For AGCTGTCA, which “PBM E-score” value is on record?
A: 0.0996

Q: AACGCCCA was tested. Which “PBM E-score” value did it give?
A: -0.0727

Q: CAGAAACC was tested. Which “PBM E-score” value did it give?
A: -0.152

Q: With CGTTCGGA as the sequence, how does the “PBM E-score” value read?
A: 0.11

Q: For CACAGGGA, which “PBM E-score” value is on record?
A: -0.184

Q: CTCCACTC was tested. Which “PBM E-score” value did it give?
A: -0.357

Q: Which “PBM E-score” value does the source give for CGCCTTAG here?
A: -0.0841

Q: For AACGTACA, which “PBM E-score” value is on record?
A: 0.0978

Q: How did the “PBM E-score” value turn out when CGGCCGGC was run?
A: -0.0699

Q: GGTAACTA was tested. Which “PBM E-score” value did it give?
A: 0.104

Q: Which “PBM E-score” value does the source give for CCTAAAAG here?
A: -0.262

Q: With CAGGAAAG as the sequence, how does the “PBM E-score” value read?
A: -0.146

Q: With CAAGGCTG as the sequence, how does the “PBM E-score” value read?
A: -0.0693

Q: Which “PBM E-score” value does the source give for GGCAGTCA here?
A: 0.0837

Q: With CGTGCGTC as the sequence, how does the “PBM E-score” value read?
A: 0.258

Q: For CATTCACC, which “PBM E-score” value is on record?
A: 0.0324

Q: Which “PBM E-score” value does the source give for ACGCGTGA here?
A: 0.291

Q: With ACTGTGGC as the sequence, how does the “PBM E-score” value read?
A: -0.117

Q: CACAGGCA was tested. Which “PBM E-score” value did it give?
A: -0.117

Q: Which “PBM E-score” value does the source give for CGTTGATC here?
A: 0.247

Q: Which “PBM E-score” value does the source give for AAAGATGT here?
A: 0.07

Q: With CCTAGCCC as the sequence, how does the “PBM E-score” value read?
A: -0.278
